Test results from US7482328B2, “Antimicrobial polypeptide and utilization thereof” (Toagosei Co., Ltd., priority 2002, dated 2009).
Some entries share one result that the patent states for a list of compounds. No end group written: not given here.

The sequences below were run on gram-negative bacteria (E. coli) and gram-positive bacteria (S. aureus) (assay: antimicrobial test of Example 2, results summed up in words). Settings: summary of Table 2, E. coli and S. aureus.
Type: cell-based
Experimental: Regarding the antimicrobial polypeptide of the present invention (samples 1 to 33) and the polypeptides of comparative samples 1 to 3, the antimicrobial activities (minimum inhibitory concentration: MIC) with respect to gram-negative bacteria (E. coli) and gram-positive bacteria (S. aureus) were determined by a liquid medium dilution technique using a 96-well microplate.
More specifically, liquid bouillon media (“NUTRIENT BROTH Dehydraged” manufactured by DIFCO) in a polypeptide concentration of 500, 250, 125, 62.5, 31.3, 15.6, 7.8, 3.9, 1.9, 1.0 and 0.5 μM were prepared, and filled in a 96-well microplate. On the other hand, bacteria suspension (about 2×10^6 cells/mL) that had been stationary cultured at 37° C. for 18 hours with LB Broth, Lennox (manufactured by DIFCO) were inoculated to each well of the 96-well microplate in an equal amount to that of the pharmaceutical solution (the above-described polypeptide-containing bouillon medium). After inoculation, culture was started in an incubator at 37° C., and it was examined based on the turbidity after 24 hours and 48 hours whether or not bacteria are present. The minimum of the polypeptide concentrations in which no increase in the turbidity caused by bacteria at the time of measurement was observed was defined as MIC in this example.

| Sequence | antimicrobial activities (in words) |
| --- | --- |
| PKKKRKVPKKKRKV [sample 16, PKKKRKVPKKKRKV] | particularly high antimicrobial activities |
| PRRRKPRRRK [sample 18, PRRRKPRRRK] | particularly high antimicrobial activities |
| RIRKKLRRIRKKLR [sample 17, RIRKKLRRIRKKLR] | particularly high antimicrobial activities |
| RKKKRKVRKKKRKV [sample 20, RKKKRKVRKKKRKV] | particularly high antimicrobial activities |
| RKKKRKVRKKKRKVRKKKRKV [sample 21] | particularly high antimicrobial activities |
| RKKKRKVRKKKRKVRKKKRKVRKKKRKV [sample 22] | particularly high antimicrobial activities |
